From article PMC6580496 come the findings set out here.

By UniProt entry, the sequences of proteins in these tests, tags left out. Where a name states a change or a piece, a line headed by the entry shows the natural chain unless it says otherwise. Chains listed by the source or under a name are the forms on record and can include a tag or linker.
UniProt Q06609: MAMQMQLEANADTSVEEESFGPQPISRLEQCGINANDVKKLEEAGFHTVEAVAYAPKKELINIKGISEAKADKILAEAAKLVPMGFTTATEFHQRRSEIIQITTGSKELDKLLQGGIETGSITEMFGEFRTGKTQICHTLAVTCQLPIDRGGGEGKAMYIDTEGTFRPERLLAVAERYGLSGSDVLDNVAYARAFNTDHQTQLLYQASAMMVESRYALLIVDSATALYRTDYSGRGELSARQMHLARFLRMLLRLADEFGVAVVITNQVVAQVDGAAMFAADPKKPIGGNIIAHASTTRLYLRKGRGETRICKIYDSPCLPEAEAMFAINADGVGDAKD
UniProt Q05397: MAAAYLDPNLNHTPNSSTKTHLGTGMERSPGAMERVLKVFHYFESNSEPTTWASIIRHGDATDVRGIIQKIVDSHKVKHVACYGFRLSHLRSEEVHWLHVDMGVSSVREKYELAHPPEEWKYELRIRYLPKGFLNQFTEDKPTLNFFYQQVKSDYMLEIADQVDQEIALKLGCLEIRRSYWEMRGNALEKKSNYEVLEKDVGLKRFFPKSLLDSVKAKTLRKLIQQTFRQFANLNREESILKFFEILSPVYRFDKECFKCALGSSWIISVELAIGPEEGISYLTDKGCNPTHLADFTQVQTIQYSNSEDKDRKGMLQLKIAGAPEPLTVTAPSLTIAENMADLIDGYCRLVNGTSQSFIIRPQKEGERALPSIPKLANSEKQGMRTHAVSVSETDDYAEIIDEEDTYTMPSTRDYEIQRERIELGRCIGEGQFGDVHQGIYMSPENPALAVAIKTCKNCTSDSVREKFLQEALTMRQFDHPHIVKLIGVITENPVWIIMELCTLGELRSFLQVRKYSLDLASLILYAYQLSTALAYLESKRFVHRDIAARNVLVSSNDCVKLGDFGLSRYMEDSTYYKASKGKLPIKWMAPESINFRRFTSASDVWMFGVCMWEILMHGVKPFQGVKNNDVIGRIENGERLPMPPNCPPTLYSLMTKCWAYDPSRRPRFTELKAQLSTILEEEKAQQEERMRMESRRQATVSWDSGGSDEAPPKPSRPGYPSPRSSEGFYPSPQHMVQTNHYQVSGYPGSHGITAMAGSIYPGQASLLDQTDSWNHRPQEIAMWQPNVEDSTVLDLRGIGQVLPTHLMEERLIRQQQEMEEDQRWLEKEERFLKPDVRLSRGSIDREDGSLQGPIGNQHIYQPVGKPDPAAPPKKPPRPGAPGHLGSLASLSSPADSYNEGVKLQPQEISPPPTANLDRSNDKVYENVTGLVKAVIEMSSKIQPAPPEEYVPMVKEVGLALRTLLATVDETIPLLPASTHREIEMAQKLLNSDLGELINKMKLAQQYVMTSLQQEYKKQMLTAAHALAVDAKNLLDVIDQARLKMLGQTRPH
UniProt P20700: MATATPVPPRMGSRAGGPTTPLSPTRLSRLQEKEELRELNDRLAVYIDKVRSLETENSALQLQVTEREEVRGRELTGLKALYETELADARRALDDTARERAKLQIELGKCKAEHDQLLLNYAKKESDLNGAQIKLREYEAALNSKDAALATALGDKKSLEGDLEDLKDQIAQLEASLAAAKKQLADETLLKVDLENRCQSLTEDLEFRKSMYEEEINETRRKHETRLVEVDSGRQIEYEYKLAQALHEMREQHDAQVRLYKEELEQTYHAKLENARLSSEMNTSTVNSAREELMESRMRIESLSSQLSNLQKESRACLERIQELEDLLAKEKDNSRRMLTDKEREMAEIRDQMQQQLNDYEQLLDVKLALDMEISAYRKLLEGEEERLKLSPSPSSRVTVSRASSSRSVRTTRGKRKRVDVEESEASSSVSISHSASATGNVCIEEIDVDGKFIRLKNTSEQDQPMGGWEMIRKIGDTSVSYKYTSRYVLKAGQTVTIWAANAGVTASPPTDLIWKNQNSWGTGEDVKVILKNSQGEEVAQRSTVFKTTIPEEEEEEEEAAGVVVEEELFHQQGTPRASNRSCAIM
Dystrophin Dp71 (human (endogenous in HBE)) (P11532-7, form named): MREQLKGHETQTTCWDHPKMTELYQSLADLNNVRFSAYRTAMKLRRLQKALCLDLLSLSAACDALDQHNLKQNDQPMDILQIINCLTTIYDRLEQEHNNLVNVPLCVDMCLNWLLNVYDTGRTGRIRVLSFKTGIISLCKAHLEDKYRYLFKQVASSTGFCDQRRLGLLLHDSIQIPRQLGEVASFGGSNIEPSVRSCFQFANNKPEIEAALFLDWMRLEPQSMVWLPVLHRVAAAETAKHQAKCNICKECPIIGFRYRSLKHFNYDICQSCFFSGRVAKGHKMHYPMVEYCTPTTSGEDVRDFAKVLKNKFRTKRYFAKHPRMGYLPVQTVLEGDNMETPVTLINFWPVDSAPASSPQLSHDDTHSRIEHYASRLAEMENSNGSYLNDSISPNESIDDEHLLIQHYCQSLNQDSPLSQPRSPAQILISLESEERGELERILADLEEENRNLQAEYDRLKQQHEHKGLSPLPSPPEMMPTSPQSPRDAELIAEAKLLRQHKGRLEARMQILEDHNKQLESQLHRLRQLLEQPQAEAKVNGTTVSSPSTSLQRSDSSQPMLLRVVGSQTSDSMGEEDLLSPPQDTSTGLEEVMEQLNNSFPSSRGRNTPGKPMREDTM

Common to all, as to assay: co-IP; endogenous proteins in HBE total protein extracts; incubated overnight at 4 °C with 5 μg rabbit antibody (anti-lamin B1, anti-Dp71, anti-FAK or anti-RAD51) bound to protein G magnetic beads; washed 3 times with PBS containing 0.1% Tween 20; Western blot with mouse antibodies; irrelevant rabbit polyclonal antibody as negative control
(In general: Immunoblotting shows a protein as a band on a membrane.)

Experiment [1] addresses RAD51 (human (endogenous in HBE)) (UniProt Q06609).
Experiment [2] concerns the target focal adhesion kinase (human (endogenous in HBE)) (UniProt Q05397).
Experiment [3] concerns the target lamin B1 (human (endogenous in HBE)) (UniProt P20700).
The target of experiment [4] is Dystrophin Dp71 (human (endogenous in HBE)) (UniProt P11532).

These are yes or no findings as the source states them, for the method shown. In cells and extracts the contact can be indirect. Some entries that bind do so weakly or less than the wild type.

As to “Dystrophin Dp71 (from UniProt P11532-7 1-617)”, the binding entry in experiment [1], in experiment [2] and in experiment [3] was “binds” in each case.
Regarding RAD51 (from UniProt Q06609 1-339), the binding entry in experiment [4] and in experiment [3] was “binds” throughout.
As to “focal adhesion kinase (from UniProt Q05397 1-1052)”, the binding entry in experiment [4] is given as “binds”.
Turning to lamin B1 (from UniProt P20700 1-586), the binding result in experiment [4] and in experiment [1] was “binds” in each case.
